Data as given in the supplement of paper PMC10849652.
This is one part of the list.

Protein sequences, listed by entry. Tags and fused reporters are not part of them. Lines headed by an entry give the natural chain unless they say otherwise; changes in a name come on top.
UniProt P31321, whole entry, looked up: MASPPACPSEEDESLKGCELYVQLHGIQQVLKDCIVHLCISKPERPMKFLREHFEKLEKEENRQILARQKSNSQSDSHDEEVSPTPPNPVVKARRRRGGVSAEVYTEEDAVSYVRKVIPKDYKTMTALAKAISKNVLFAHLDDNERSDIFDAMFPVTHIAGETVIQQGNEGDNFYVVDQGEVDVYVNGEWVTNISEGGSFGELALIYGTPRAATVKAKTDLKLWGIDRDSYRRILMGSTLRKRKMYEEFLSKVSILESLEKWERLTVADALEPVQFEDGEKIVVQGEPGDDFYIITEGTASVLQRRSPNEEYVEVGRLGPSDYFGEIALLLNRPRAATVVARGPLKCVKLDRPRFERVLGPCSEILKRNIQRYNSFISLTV
UniProt Q9BSG0: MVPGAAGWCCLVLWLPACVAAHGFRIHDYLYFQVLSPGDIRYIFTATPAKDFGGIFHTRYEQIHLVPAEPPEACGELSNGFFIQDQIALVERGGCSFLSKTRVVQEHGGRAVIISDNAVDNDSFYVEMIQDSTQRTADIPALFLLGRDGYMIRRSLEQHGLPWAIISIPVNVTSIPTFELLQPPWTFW
UniProt Q05655: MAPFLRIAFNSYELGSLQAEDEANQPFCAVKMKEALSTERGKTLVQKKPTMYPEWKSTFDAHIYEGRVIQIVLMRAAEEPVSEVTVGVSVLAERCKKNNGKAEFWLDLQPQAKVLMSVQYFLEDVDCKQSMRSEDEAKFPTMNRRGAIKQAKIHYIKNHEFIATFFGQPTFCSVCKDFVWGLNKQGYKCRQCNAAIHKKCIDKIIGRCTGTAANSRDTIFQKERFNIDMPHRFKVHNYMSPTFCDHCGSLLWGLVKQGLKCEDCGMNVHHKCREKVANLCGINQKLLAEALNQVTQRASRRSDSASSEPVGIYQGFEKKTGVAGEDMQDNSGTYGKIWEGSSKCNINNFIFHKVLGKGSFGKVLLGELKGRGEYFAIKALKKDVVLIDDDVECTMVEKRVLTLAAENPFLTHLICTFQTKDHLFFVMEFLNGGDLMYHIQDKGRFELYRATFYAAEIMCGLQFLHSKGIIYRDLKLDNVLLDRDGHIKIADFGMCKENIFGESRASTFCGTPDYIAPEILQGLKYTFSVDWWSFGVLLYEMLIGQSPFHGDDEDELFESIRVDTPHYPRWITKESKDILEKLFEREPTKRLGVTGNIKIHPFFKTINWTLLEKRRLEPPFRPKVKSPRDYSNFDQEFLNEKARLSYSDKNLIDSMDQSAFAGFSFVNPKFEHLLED
UniProt O75569: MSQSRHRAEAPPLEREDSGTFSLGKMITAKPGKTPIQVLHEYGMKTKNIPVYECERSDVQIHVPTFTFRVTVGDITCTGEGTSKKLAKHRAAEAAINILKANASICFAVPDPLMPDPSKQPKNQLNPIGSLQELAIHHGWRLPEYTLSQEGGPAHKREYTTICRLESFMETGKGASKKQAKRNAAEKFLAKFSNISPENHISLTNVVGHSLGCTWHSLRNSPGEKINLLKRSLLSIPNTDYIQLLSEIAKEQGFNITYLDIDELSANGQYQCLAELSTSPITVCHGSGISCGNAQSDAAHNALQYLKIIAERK
UniProt Q9UPN7: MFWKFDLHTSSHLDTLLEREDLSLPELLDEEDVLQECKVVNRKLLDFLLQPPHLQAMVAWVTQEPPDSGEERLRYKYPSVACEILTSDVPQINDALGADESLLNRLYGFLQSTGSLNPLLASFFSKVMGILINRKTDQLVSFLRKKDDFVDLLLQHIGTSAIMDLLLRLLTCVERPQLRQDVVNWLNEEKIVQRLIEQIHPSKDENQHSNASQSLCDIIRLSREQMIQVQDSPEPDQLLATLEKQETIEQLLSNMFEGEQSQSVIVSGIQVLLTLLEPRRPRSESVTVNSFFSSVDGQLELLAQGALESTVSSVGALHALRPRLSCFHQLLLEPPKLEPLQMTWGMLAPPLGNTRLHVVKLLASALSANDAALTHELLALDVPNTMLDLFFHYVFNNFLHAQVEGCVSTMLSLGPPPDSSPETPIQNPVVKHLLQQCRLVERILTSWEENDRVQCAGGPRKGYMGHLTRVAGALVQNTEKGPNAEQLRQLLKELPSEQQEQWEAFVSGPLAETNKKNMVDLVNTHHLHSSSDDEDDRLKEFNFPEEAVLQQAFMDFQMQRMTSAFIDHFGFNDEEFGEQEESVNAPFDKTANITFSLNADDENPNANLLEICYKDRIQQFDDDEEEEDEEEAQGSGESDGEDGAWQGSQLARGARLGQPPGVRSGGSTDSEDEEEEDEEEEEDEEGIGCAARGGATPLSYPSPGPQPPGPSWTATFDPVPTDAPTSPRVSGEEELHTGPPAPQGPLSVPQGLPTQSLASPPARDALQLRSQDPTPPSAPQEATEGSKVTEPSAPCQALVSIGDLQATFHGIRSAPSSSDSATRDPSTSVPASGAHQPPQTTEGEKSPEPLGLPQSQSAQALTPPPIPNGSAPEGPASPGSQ
UniProt Q96C90: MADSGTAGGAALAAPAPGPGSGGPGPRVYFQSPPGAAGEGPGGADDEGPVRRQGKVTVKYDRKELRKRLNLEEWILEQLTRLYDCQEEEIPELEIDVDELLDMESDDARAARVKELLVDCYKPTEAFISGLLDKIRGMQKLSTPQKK
UniProt O15355: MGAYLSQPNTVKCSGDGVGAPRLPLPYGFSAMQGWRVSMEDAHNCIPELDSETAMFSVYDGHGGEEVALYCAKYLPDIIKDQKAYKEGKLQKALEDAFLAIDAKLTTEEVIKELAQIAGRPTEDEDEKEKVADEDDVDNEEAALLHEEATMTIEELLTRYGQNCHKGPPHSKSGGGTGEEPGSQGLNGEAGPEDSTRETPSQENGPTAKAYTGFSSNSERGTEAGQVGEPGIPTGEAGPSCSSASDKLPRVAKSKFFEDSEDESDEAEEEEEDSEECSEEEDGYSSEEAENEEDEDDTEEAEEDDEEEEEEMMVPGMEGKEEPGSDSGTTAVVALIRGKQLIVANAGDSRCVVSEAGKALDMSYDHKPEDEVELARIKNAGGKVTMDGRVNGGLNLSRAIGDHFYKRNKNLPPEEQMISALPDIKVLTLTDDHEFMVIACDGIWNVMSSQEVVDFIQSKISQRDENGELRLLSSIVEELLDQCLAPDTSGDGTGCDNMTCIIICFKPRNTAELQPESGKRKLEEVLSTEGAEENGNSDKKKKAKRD
UniProt Q13362, whole entry, looked up: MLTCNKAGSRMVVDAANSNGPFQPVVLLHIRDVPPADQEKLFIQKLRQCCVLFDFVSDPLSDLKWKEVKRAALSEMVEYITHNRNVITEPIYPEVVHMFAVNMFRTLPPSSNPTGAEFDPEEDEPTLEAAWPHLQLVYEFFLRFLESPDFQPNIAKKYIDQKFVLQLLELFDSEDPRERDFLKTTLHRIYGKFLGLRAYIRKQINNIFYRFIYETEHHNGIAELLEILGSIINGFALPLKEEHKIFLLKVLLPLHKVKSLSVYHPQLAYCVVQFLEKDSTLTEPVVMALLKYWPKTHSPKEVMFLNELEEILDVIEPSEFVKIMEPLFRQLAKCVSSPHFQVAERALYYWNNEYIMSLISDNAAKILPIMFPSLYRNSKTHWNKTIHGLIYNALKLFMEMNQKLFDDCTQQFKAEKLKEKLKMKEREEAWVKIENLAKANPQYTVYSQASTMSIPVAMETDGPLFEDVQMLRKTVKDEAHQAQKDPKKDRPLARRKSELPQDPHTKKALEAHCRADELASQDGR
UniProt K7ELL7: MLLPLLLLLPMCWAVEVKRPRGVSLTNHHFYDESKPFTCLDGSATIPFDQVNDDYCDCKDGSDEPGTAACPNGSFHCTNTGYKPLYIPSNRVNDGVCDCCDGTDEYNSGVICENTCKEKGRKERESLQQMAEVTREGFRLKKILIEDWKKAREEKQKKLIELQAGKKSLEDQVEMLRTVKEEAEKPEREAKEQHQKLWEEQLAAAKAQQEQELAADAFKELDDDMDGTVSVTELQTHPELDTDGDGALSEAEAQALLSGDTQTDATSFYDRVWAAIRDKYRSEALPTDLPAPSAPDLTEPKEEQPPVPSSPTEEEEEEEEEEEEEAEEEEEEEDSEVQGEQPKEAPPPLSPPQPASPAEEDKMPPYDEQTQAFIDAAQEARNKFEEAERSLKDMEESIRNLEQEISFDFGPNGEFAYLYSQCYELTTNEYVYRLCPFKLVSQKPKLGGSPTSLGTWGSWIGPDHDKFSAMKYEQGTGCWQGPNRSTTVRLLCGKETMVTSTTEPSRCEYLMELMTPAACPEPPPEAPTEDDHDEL
UniProt O43741: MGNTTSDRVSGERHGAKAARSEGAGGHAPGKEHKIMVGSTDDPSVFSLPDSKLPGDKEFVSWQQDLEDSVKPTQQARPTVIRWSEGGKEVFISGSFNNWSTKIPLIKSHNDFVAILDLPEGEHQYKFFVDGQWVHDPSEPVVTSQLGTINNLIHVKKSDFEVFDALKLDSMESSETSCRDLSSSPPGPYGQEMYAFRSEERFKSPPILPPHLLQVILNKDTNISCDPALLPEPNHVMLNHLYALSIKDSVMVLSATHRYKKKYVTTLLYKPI
UniProt Q99633: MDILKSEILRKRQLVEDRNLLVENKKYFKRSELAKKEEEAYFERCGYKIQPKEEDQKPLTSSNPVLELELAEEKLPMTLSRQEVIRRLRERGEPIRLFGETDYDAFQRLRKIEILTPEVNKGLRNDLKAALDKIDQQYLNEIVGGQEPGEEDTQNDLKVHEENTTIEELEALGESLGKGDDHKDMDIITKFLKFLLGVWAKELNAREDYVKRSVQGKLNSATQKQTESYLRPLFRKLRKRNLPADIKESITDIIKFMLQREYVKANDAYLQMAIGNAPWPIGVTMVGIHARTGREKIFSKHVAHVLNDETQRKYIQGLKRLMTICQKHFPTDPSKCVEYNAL
UniProt Q13523: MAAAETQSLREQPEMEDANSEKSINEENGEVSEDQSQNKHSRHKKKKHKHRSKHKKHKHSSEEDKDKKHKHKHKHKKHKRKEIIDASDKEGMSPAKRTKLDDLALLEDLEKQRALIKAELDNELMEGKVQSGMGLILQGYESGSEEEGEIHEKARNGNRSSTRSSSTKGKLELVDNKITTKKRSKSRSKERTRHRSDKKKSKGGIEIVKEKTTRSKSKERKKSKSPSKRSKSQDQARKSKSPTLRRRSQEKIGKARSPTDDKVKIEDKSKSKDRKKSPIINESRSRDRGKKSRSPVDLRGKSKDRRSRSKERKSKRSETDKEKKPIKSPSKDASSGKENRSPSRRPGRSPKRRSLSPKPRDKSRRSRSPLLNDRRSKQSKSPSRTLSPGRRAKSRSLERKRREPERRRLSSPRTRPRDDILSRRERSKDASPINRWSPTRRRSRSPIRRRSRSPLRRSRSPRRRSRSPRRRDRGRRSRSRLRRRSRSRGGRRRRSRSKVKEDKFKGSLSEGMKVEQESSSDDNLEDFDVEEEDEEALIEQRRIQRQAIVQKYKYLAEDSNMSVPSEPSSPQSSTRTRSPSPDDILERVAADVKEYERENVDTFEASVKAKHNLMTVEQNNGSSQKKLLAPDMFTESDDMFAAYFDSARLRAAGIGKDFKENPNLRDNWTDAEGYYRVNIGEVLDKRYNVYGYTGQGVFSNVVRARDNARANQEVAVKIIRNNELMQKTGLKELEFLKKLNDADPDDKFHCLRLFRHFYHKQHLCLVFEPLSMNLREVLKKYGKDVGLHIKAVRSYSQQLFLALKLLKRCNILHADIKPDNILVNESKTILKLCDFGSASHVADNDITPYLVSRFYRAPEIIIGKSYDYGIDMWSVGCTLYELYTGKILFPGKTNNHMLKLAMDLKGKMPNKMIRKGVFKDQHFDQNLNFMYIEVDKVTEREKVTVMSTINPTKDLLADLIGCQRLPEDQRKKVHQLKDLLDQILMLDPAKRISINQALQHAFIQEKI

compound: Cc1cccc(CC(=O)N2CCc3c2ccc(-c2cn(C)c4ncnc(N)c24)c3F)n1; assay: log2 fold change, soluble protein after heating vs DMSO (PISA); higher = thermal stabilisation; K562 cells, 10 uM, 30 min; active = over 0.2 and 3.5 SD of the protein, either way, in both replicates (recomputed)
In short: (§1)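 K562 cells at 2×10^6 cells/mL were exposed to 10 μM compound for 30 min, then aliquots were heated for 3 min across 48°C-58°C, pooled, and extracted in PBS containing 0.5% NP-40 at 4°C. The supernatant after 21,000xg for 90 min was taken as soluble protein and measured by TMTpro 16plex LC-MS/MS with channel sums equalised. Thermal stability is reported relative to control samples, with values from duplicates. Fold changes are given on a log2 scale.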

log2 fold change, inactive:
PRKAR1B (UniProt P31321) -0.015
PRADC1 (UniProt Q9BSG0) -0.074
PROCR (UniProt Q9UNN8) 0.057
PRKCD (UniProt Q05655) -0.007
PPP1R12A (UniProt O14974) -0.02
PRKRA (UniProt O75569) -0.003
PPP6R1 (UniProt Q9UPN7) 0.022

compound: Cc1cn(-c2cc(NC(=O)c3ccc(C)c(Nc4nccc(-c5cccnc5)n4)c3)cc(C(F)(F)F)c2)cn1 [nilotinib]; assay: as above
In short: as §1

log2 fold change, inactive:
PPP1CA (UniProt P62136) -0.002
PPP1R14B (UniProt Q96C90) 0.01
PRKAG1 isoform 3 (UniProt P54619) -0.079
PPP6R3 isoform 5 (UniProt Q5H9R7) 0.015
PRKAR2B (UniProt P31323) 0.012
PRPSAP1 isoform 2 (UniProt Q14558) 0.018
PRKCQ (UniProt Q04759) -0.051
PPM1G (UniProt O15355) -0.041
PRKCB isoform 2 (UniProt P05771) -0.022
PRMT8 (UniProt Q9NR22) -0.036
PPP2R5C isoform 4 (UniProt Q13362) -0.05
PRKCSH (UniProt K7ELL7) -0.03
PRKAB2 (UniProt O43741) -0.022
PRPF18 (UniProt Q99633) -0.109
PRKCA (UniProt P17252) -0.011
PRKDC (UniProt P78527) -0.035
PPP2R5A (UniProt Q15172) -0.075
PPP1R14A (UniProt Q96A00) -0.01
PRKACA (UniProt P17612) -0.038
PRKAA1 isoform 2 (UniProt Q13131) -0.029
PRMT7 (UniProt Q9NVM4) -0.002
PPP1R35 (UniProt Q8TAP8) 0.008
PRPF4B (UniProt Q13523) 0.153
PRKAR2A (UniProt P13861) 0.139
PRSS2 (UniProt P07478) -0.004
PRKAR1B (UniProt P31321) 0.062
PROCR (UniProt Q9UNN8) 0.086
PRKCD (UniProt Q05655) 0.033
PPP1R12A (UniProt O14974) -0.027
PRKRA (UniProt O75569) -0.028
PPP6R1 (UniProt Q9UPN7) 0.003
